Literature values, collected in patent US10300045B2, “Delayed release feed-through veterinary compositions with ovicidal and larvicidal activity against susceptible and resistant strains of parasites in ruminants' feces, use of these compositions, method for delaying the release of these compositions” (Champion USA LLC, priority 2017, dated 2019).
For at least one compound, name, drawing or mass did not settle the structure.

Test system: Cooperia spp.
Conditions: cattle, injectable moxidectin, necropsy 14 days after treatment; control animals 98.5%; P<0.001

Structure (SMILES): CO/N=C1\C[C@]2(C[C@@H]3C[C@@H](C/C=C(\C)C[C@@H](C)/C=C/C=C4\CO[C@@H]5[C@H](O)C(C)=C[C@@H](C(=O)O3)[C@]45O)O2)O[C@H](/C(C)=C/C(C)C)[C@H]1C [moxidectin]
- Cooperia spp. females recovered at necropsy that had eggs inside the uterus: 48.2%
